These results are taken from paper PMC2999431.

In assay [1] the target is Cotesia congregata bracovirus CcV1 protein, epitope-tagged recombinant form (Cotesia congregata bracovirus). Kind of assay: co-IP; co-immunoprecipitation employing the recombinant epitope-tagged proteins expressed in lepidopteran cells.
Assay [2] shares this target. Kind of assay: cross-linking; chemical cross-linking employing the recombinant epitope-tagged proteins expressed in lepidopteran cells.

Results are given in words; binding and its absence hold for the method and conditions named. Binding seen in cells or lysates may run through a third protein. Binding can be weak; no strength is given. Where a sequence is shown, tags or fusion partners need not be part of it.

B1: Manduca sexta hemolin, epitope-tagged recombinant form (protein, UniProt P31398 19-413)
chain: QPVEKMPVLKDQPAEVLFRESQATVLECVTENGDKDVKYSWQKDGKEFKWQEHNIAQRKDEGSLVFLKPEAKDEGQYRCFAESAAGVATSHIISFRRTYMVVPTTFKTVEKKPVEGSWLKLECSIPEGYPKPTIVWRKQLGEDESIADSILARRITQSPEGDLYFTSVEKEDVSESYKYVCAAKSPAIDGDVPLVGYTIKSLEKNTNQKNGELVPMYVSNDMIAKAGDVTMIYCMYGGVPMAYPNWFKDGKDVNGKPSDRITRHNRTSGKRLFIKETLLEDQGTFTCDVNNEVGKPQKHSVKLTVVSGPRFTKKPEKQVIAKQGQDFVIPCEVSALPAAPVSWTFNAKPISGSRVVASPSGLTIKGIQKSDKGYYGCQAHNEHGDAYAETLVIVA
Turning to B1, the binding result in assay [1] and in assay [2] was “binds” in each case.
